PubChem BioAssay AID1224830 – NIAID | 2016
Purpose: 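Host factors that control LPS-induced TNF expression in human macrophages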 (primary screen). Cell system: human THP-1 monocytic leukaemia cells, TNF dual-luciferase reporter clone, PMA-differentiated to macrophage-like cells. Reagents: siRNA pool against human genes, 50 nM. Duration: LPS for 4 h, given about 3 days after siRNA transfection. Challenge: bacterial LPS (TLR4 ligand), 10 ng/ml. Detection: 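Ratio of firefly to renilla light, scaled to the plate median and expressed as a robust z-score per replicate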. Reading the numbers: TNF reporter robust z-score: higher = stronger TNF reporter response to LPS. Active means: 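Each well counts as active if its z-score is over 2.8 or under -1.5; controls are left without a call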.
In all, the deposit lists about 18,000 reagents; this is a random part of them. About 2,900 of them (16%) count as active. 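Calls are made per well; low scores hint the gene aids the LPS response, high scores that it dampens it.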 Repeated entries: four replicate wells of each siRNA pool.

ZDHHC9 showed TNF reporter robust z-score -0.84; inactive. With knock-down of ZDHHC9, the record shows TNF reporter robust z-score -0.43; inactive. After knock-down of ZDHHC9, the screen gave TNF reporter robust z-score -0.22; inactive. Against ZDHHC9, the values are TNF reporter robust z-score -0.82; inactive. SRFBP1 scored TNF reporter robust z-score 0.58; inactive. For SRFBP1, the entry reads TNF reporter robust z-score 3.15; active.

Against SRFBP1 the deposit lists TNF reporter robust z-score 3.43; active. SRFBP1 showed TNF reporter robust z-score -0.56; inactive. ZNF260 gave TNF reporter robust z-score -0.28; inactive. After knock-down of ZNF260, the record shows TNF reporter robust z-score 2.3; inactive. Depletion of ZNF260 resulted in: TNF reporter robust z-score 0.77; inactive. Against ZNF260 the deposit lists TNF reporter robust z-score 0.9; inactive.

Depletion of KCNIP2 came out at: TNF reporter robust z-score 0.02; inactive. Against KCNIP2, the entry reads TNF reporter robust z-score -0.65; inactive. Knock-down of KCNIP2 gave: TNF reporter robust z-score 0.2; inactive. With knock-down of KCNIP2 the results were TNF reporter robust z-score 0.85; inactive. For USP14, the values are TNF reporter robust z-score 0.71; inactive. After knock-down of USP14, the screen gave TNF reporter robust z-score 0.45; inactive.

Silencing of USP14 resulted in: TNF reporter robust z-score 0.21; inactive. Knock-down of USP14 gave: TNF reporter robust z-score -0.01; inactive.

2 neighbouring records already listed:
ZDHHC9: TNF reporter robust z-score = -0.84; outcome = inactive
ZDHHC9: TNF reporter robust z-score = -0.43; outcome = inactive
